Measured values published in doi:10.1101/2022.09.04.506508.

B1: SMG-2 (protein, UniProt O76512 1-1069)
chain: MDDSDDEYSRSHGETLTFVDPEDDGVSIGNTQDSQFAYEQFSVPTQSSQATDLLPGGTDGTTNDLPFHDVEDDESDSEKSLTEEQHEQKLPEHACRYCGISDPLCVAKCTVCRKWFCNSNDGTSGGHIVHHMVRSQHKEAYTHKDSPCGDTQLECYRCGSKNVFNLGFIPGKKDQVVVIICRTPCASIAFQNDDNWSPEDWKSVIAEKQLLSWIVNVPSEEQVARARKITATQAVRMEELWRDHPEATVDDLNKPGLDREPDHVQLRYVDAHHYSKVFRPLVAIEAEYDRRVKESASQAVGTVRWEQGLRQSVLAFFHLPQFADGVMKLAKGDELRLKHSQTVDGSEWTKIGSVFKIPDNHGDEVGIEIRGAVDKSVMESRIMFTVDVVWNATTFERQYKALAALLNDSKAISPYLYQKLLGHPAEEMMLKFDLPRRLSVAGLPELNSSQMQAVKQVLTRPLSLIQGPPGTGKTVVSATIVYHLVQKTEGNVLVCSPSNIAVDHLAEKIHKTGLKVVRLCARSREHSETTVPYLTLQHQLKVMGGAELQKLIQLKDEAGELEFKDDLRYMQLKRVKEHELLAAADVICCTCSSAADARLSKIRTRTVLIDESTQATEPEILVSIMRGVRQLVLVGDHCQLGPVVICKKAAIAGLSQSLFERLVLLGIRPFRLQVQYRMHPVLSEFPSNVFYDGSLQNGVTENDRHMTGVDWHWPKPNKPAFFWHCSGSEELSASGTSFLNRTEAANVEKLVSKLIKAGVQPHQIGVITSYEGQRSFIVNYMHTQGTLNSKLYENVEIASVDAFQGREKDYIIVTCVRSNDILGIGFLSDPRRLNVAITRAKYGLVLVGNAKVLARHDLWHELINHYKSKEMLYEGPINALKPLNLALPKATIRTKNNIAGNANRFGIKRMQYTFNEYKSNDPSQPRLPPTYSNSQNLLSMSKLAQTFNKNVPIPAHMMDPNVYAAARNQKDRRRGDQRRPPPQAEAAMDLSQGMMSQQSQQYPPQGASSQSQYLLDGASSLSGWSQSQTTTTTTRHHHHRQNRNSQQQMSQDMDDIQQKMDDLLFSQDC
B2: CPSF-1 (protein, UniProt Q9N4C2 1-1454)
chain: MYGYLRETDDSTAINFSAYGKFLPGENTGFQLLTIGAKFIRIFRVNPYVLKEPGEDNEEWQQKTKLECMFSCRLLNKCHSIAVARVPQLPDQDSILMTFDDAKLSIVSINEKERNMQTISLHAFENEYLRDGFINHFQPPLVRSDPSNRCAACLVYGKHIAILPFHENSKRIHSYVIPLKQIDPRLDNIADMVFLDGYYEPTILFLYEPIQTTPGRACVRYDTMCIMGVSVNIVDRQFAVVWQTANLPMDCSQLLPIPKPLGGALVFGSNTVVYLNQAVPPCGLVLNSCYDGFTKFPLKDLKHLKMTLDCSTSVYMEDGRIAVGSRDGDLFLLRLMTSSGGGTVKSLEFSKVYETSIAYSLTVCAPGHLFVGSRLGDSQLLEYTLLKTTRDCAVKRLKIDNKDPAAAEIELDEDDMELYGGAIEEQQNDDDEQIDESLQFRELDRLRNVGPVKSMCVGRPNYMSNDLVDAKRRDPVFDLVTASGHGKNGALCVHQRSLRPEIITSSLLEGAEQLWAVGRKENESHKYLIVSRVRSTLILELGEELVELEEQLFVTGEPTVAAGELSQGALAVQVTSTCIALVTDGQQMQEVHIDSNFPVIQASIVDPYVALLTQNGRLLLYELVMEPYVQLREVDISATSFATWHATAQNLTQLTSISIYADASEIMKFAAAEKSMGGGGGGDGEVSTAENAMMKKEQHEEAILLHGEDDDFLYGDEDETIMEQNFPVENGEATIKQSNTRKRKRLGHDAIQSSRGGEQSDAIDPTRTFSSISHWLIVSHENGRLSIHSLPEMEVVYQIGRFSNVPELLVDLTVEEEEKERKAKAQQAAKEASVPTDEAEQLNTEMKQLCERVLEAQIVGMGINQAHPILMAIVDEQVVLYEMFSSSNPIPGHLGISFRKLPHFICLRTSSHLNSDGKRAPFEMKINNGKRFSLIHPFERVSSVNNGVMIVGAVPTLLVYGAWGGMQTHQMTVDGPIKAFTPFNNENVLHGIVYMTQHKSELRIARMHPDFDYEMPYPVKKIEVGRTIHHVRYLMNSDVYAVVSSIPKPSNKIWVVMNDDKQEEIHEKDENFVLPAPPKYTLNLFSSQDWAAVPNTEISFEDMEAVTACEDVALKSESTISGLETLLAMGTVNNYGEEVLVRGRIILCEVIEVVPEPDQPTSNRKIKVLFDKEQKGPVTGLCAINGLLLCGMGQKVFIWQFKDNDLMGISFLDMHYYVYQLHSLRTIAIACDARESMSLIRFQEDNKAMSIASRDDRKCAQPPMASQLVVDGAHVGFLLSDETGNITMFNYAPEAPESNGGERLTVRAAINIGTNINAFVRLRGHTSLLQLNNEDEKEAIEQRMTTVFASLDGSFGFVRPLTEKSYRRLHFLQTFIGSVTPQIAGLHIKGSRSAKPSQPIVNGRNARNLIDGDVVEQYLHLSLYDKTDLARRLGVGRYHIIDDLMQLRRMAFYY

Biological target: YPET::LoxP::3xFlag::HPO-11 (C. elegans)
Assay: affinity purification with mass spectrometry

Binder	binding
B1	binds
B2	binds

These are yes or no findings as the source states them, for the method shown. In cells and extracts the contact can be indirect. A yes stands for co-enrichment or nearness to the bait. Other partners may have been found.
